Experimental findings from patent US20190280220A1, “METAL COMPLEXES” (Merck Patent GmbH, priority 2016, published 2019) are described below.

Where “and” joins values, the source holds several entries; their conditions need not be identical. Identical values can stand only once.

This data set in a line: Solution-processed OLED device, type 1 (emission layer M1:M2:IrL 40%:35%:25%). Conditions: type 1 device, single emitter.

`c1ccc(-c2ccc(N(c3ccc(-c4ccccc4)cc3)c3ccc(-c4c(-c5ccccc5)c(-c5ccccc5)c(-c5ccccc5)c(-c5ccccc5)c4-c4cc[c]5c(c4)-c4ccc(cn4)-c4ccccc4-c4cc6cc(c4)-c4ccccc4-c4ccc(nc4)-c4cccc[c]4[Ir]5[c]4ccccc4-c4ccc(cn4)-c4ccccc4-6)cc3)cc2)cc1` [Ir(517)]: the CIE x was 0.35, the CIE y worked out at 0.62, the “EQE (%) 1000 cd/m^2” value was 21.7% and the “LT50 (h) 1000 cd/m^2” value came to 330000 h. Further, the “Voltage (V) 1000 cd/m^2” value is reported as 4.7 V.

With `c1ccc(-c2c(-c3ccccc3)c(-c3ccccc3)c(-c3ccc(-c4cc(-c5ccccn5)[c]5cc4-c4ccccc4-c4cc6cc(c4)-c4ccccc4-c4c[c](c(-c7ccccn7)cc4-c4ccc(-c7c(-c8ccccc8)c(-c8ccccc8)c(-c8ccccc8)c(-c8ccccc8)c7-c7ccccc7)cc4)[Ir]5[c]4cc(c(-c5ccc(-c7c(-c8ccccc8)c(-c8ccccc8)c(-c8ccccc8)c(-c8ccccc8)c7-c7ccccc7)cc5)cc4-c4ccccn4)-c4ccccc4-6)cc3)c(-c3ccccc3)c2-c2ccccc2)cc1` [Ir(530)], the CIE x was 0.30, the CIE y stood at 0.65, the “EQE (%) 1000 cd/m^2” value worked out at 22.3% and the “LT50 (h) 1000 cd/m^2” value is reported as 360000 h. In addition, the “Voltage (V) 1000 cd/m^2” value was 5.2 V.

For `c1ccc(-c2ccccc2-c2cc(-c3ccccn3)[c]3cc2-c2ccccc2-c2cc4cc(c2)-c2ccccc2-c2c[c](c(-c5ccccn5)cc2-c2ccccc2-c2ccccc2)[Ir]3[c]2cc(c(-c3ccccc3-c3ccccc3)cc2-c2ccccn2)-c2ccccc2-4)cc1` [IrRef2, reference compound], the CIE x is 0.33, the CIE y came out at 0.62, the “EQE (%) 1000 cd/m^2” value was 20.6% and the “LT50 (h) 1000 cd/m^2” value was 250000 h. For the same compound, the “Voltage (V) 1000 cd/m^2” value amounted to 5.2 V.

On to `CC(C)(C)c1ccc(-c2c(-c3ccc(-c4cc[c]5c(c4)-c4ccc(cn4)-c4ccccc4-c4cc6cc(c4)-c4ccccc4-c4ccc(nc4)-c4cc(-c7ccc(-c8c(-c9ccc(C(C)(C)C)cc9)c(-c9ccccc9)c9c%10ccccc%10c%10ccccc%10c9c8-c8ccccc8)cc7)cc[c]4[Ir]5[c]4ccccc4-c4ccc(cn4)-c4ccccc4-6)cc3)c(-c3ccccc3)c3c4ccccc4c4ccccc4c3c2-c2ccccc2)cc1` [Ir(531)], for which the CIE x came out at 0.33, the CIE y worked out at 0.62, the “EQE (%) 1000 cd/m^2” value stood at 20.7% and the “LT50 (h) 1000 cd/m^2” value was 270000 h. In addition, the “Voltage (V) 1000 cd/m^2” value came to 5.1 V.

In the case of `c1ccc(-c2c(-c3ccccc3)c(-c3ccccc3)c(-c3ccc4c5ccccc5c5ccccc5c4c3)c(-c3cc[c]4c(c3)-c3ccc(cn3)-c3ccccc3-c3cc5cc(c3)-c3ccccc3-c3ccc(nc3)-c3cc(-c6c(-c7ccccc7)c(-c7ccccc7)c(-c7ccccc7)c(-c7ccccc7)c6-c6ccc7c8ccccc8c8ccccc8c7c6)cc[c]3[Ir]4[c]3ccccc3-c3ccc(cn3)-c3ccccc3-5)c2-c2ccccc2)cc1` [Ir(516)], the CIE x was 0.34, the CIE y is 0.61, the “EQE (%) 1000 cd/m^2” value was 22.3% and the “LT50 (h) 1000 cd/m^2” value is 310000 h. Moreover, the “Voltage (V) 1000 cd/m^2” value was 5.0 V.

`c1ccc(-c2c(-c3ccccc3)c(-c3ccccc3)c(-c3cc[c]4c(c3)-c3ccc(cn3)-c3ccccc3-c3cc5cc(c3)-c3ccccc3-c3ccc(nc3)-c3cc(-c6c(-c7ccccc7)c(-c7ccccc7)c(-c7ccccc7)c(-c7ccccc7)c6-c6ccccc6)cc[c]3[Ir]4[c]3ccc(-c4c(-c6ccccc6)c(-c6ccccc6)c(-c6ccccc6)c(-c6ccccc6)c4-c4ccccc4)cc3-c3ccc(cn3)-c3ccccc3-5)c(-c3ccccc3)c2-c2ccccc2)cc1` [Ir(515)]: the CIE x was found to be 0.34, the CIE y is 0.61, the “EQE (%) 1000 cd/m^2” value came out at 21.9% and the “LT50 (h) 1000 cd/m^2” value came to 290000 h. Also, the “Voltage (V) 1000 cd/m^2” value is on record as 4.9 V.

Turning to `Cc1ccc(-c2cc(-c3ccc(-c4c(-c5ccc(-c6cc(-c7ccc(C)cc7)c(-c7ccc(C)cc7)c(-c7ccc(C)cc7)c6-c6ccc(C)cc6)cc5)c(-c5ccc(C)cc5)c(-c5cc(-c6cc(-c7ccccn7)[c]7cc6-c6ccccc6-c6cc8cc(c6)-c6ccccc6-c6ccc(-c9ccccn9)[c](c6)[Ir]7[c]6cc(ccc6-c6ccccn6)-c6ccccc6-8)cc(-c6c(-c7ccc(C)cc7)c(-c7ccc(-c8cc(-c9ccc(C)cc9)c(-c9ccc(C)cc9)c(-c9ccc(C)cc9)c8-c8ccc(C)cc8)cc7)c(-c7ccc(-c8cc(-c9ccc(C)cc9)c(-c9ccc(C)cc9)c(-c9ccc(C)cc9)c8-c8ccc(C)cc8)cc7)c(-c7ccc(C)cc7)c6-c6ccc(C(C)(C)C)cc6)c5)c(-c5ccc(C(C)(C)C)cc5)c4-c4ccc(C)cc4)cc3)c(-c3ccc(C)cc3)c(-c3ccc(C)cc3)c2-c2ccc(C)cc2)cc1` [Ir(533)], the CIE x is 0.32, the CIE y is reported as 0.63, the “EQE (%) 1000 cd/m^2” value came to 21.9% and the “LT50 (h) 1000 cd/m^2” value is listed as 320000 h. In addition, the “Voltage (V) 1000 cd/m^2” value is recorded as 4.8 V.

For `c1ccc(-c2c(-c3ccccc3)c(-c3ccccc3)c(-c3cc[c]([Ir]([c]4ccc(-c5c(-c6ccccc6)c(-c6ccccc6)c(-c6ccccc6)c(-c6ccccc6)c5-c5ccccc5)cc4-c4ccccn4)[c]4ccc(-c5c(-c6ccccc6)c(-c6ccccc6)c(-c6ccccc6)c(-c6ccccc6)c5-c5ccccc5)cc4-c4ccccn4)c(-c4ccccn4)c3)c(-c3ccccc3)c2-c2ccccc2)cc1` [Ir(500)], the CIE x was found to be 0.32, the CIE y stood at 0.62, the “EQE (%) 1000 cd/m^2” value was 19.6% and the “LT50 (h) 1000 cd/m^2” value is 290000 h. For the same compound, the “Voltage (V) 1000 cd/m^2” value worked out at 5.0 V.

As for `c1ccc(-c2c(-c3ccccc3)c(-c3ccccc3)c(-c3ccc(-c4cc(-c5ccccn5)[c]5cc4-c4ccccc4-c4cc6cc(c4)-c4ccccc4-c4ccc(-c7ccccn7)[c](c4)[Ir]5[c]4cc(ccc4-c4ccccn4)-c4ccccc4-6)cc3)c(-c3ccc(-c4cc(-c5ccccn5)[c]5cc4-c4ccccc4-c4cc6cc(c4)-c4ccccc4-c4ccc(-c7ccccn7)[c](c4)[Ir]5[c]4cc(ccc4-c4ccccn4)-c4ccccc4-6)cc3)c2-c2ccccc2)cc1` [Ir(534)], the CIE x is 0.31 and 0.32; the CIE y is 0.66 and 0.63; the “EQE (%) 1000 cd/m^2” value was 22.0% and 22.7%; the “LT50 (h) 1000 cd/m^2” value turned out to be 340000 h. Further, the “Voltage (V) 1000 cd/m^2” value is 5.1 V and 4.9 V.

In the case of `c1ccc(-c2cc(-c3ccccc3)cc(-c3c(-c4ccccc4)c(-c4ccccc4)c(-c4cc(-c5ccccc5)cc(-c5ccccc5)c4)c(-c4ccc(-c5cc(-c6ccccn6)[c]6cc5-c5ccccc5-c5cc7cc(c5)-c5ccccc5-c5c[c](c(-c8ccccn8)cc5-c5ccc(-c8c(-c9ccccc9)c(-c9cc(-c%10ccccc%10)cc(-c%10ccccc%10)c9)c(-c9ccccc9)c(-c9ccccc9)c8-c8cc(-c9ccccc9)cc(-c9ccccc9)c8)cc5)[Ir]6[c]5cc(ccc5-c5ccccn5)-c5ccccc5-7)cc4)c3-c3ccccc3)c2)cc1` [Ir(532)], the CIE x came to 0.33, the CIE y was 0.62, the “EQE (%) 1000 cd/m^2” value was 22.1% and the “LT50 (h) 1000 cd/m^2” value is 290000 h. Moreover, the “Voltage (V) 1000 cd/m^2” value is recorded as 5.0 V.
